Results: US20250283871A1, “COMPOSITIONS AND METHODS FOR MODULATING THE INTERACTION BETWEEN SS18-SSX FUSION ONCOPROTEIN AND NUCLEOSOMES” (Dana-Farber Cancer Institute, Inc., priority 2020, published 2025)

System: BAF complex subunits and histone proteins
Experiment: Mass spectrometry proteomics of purified HA-SS18 WT and HA-SS18-SSX1 complexes (Tables 5A-5E)
Parameters: species or system human
Settings: for Total / Unique: HA-SS18SSX1_CHR_peptides; for Total: total peptides of the identified protein; for Unique: unique peptides of the identified protein
[1] = HA-SS18SSX1_NE_peptides: protein co-purified with HA-SS18-SSX1 BAF complexes from soluble nuclear extract (NE), HEK-293T cells
[2] = HA-SS18WT_NE_peptides: HA-SS18 WT complexes purified from nuclear extract (NE), HEK-293T, label = protein identified (Gene Symbol)
[3] = HA-SS18WT_NE_peptides: proteins co-purified with HA-SS18 WT from nuclear extract (NE), HEK-293T
[4] = HA-SS18SSX1 purification, NE (soluble nuclear extract) fraction, HEK-293T, peptides per identified protein
[5] = HA-SS18SSX1_CHR_peptides: protein identified in the HA-SS18-SSX1 purification from solubilized chromatin (CHR), HEK-293T
[6] = HA-SS18WT_CHR_peptides: HA-SS18 WT purification from nuclease-treated solubilized chromatin (CHR), HEK-293T, label = protein identified
[7] = HA-SS18SSX1_NE_peptides (Table 5B), HA-SS18-SSX1 BAF complex purification from soluble nuclear extract, HEK-293T
[8] = HA-SS18WT_CHR_peptides: protein identified in HA-SS18 WT BAF complex purification from nuclease-treated solubilized chromatin (CHR), HEK-293T
[9] = HA-SS18SSX1_CHR_peptides: proteins found in HA-SS18-SSX1 BAF complex purification from solubilized chromatin (CHR), HEK-293T

Substance: ABCC1
- Total (peptides) [1]: 2
- Unique (peptides) [1]: 2
- Total (peptides) [2]: 3
- Unique (peptides) [2]: 3

Substance: ADCY6
- Total (peptides) [3]: 1
- Unique (peptides) [3]: 1

Substance: AFG3L2
- Total (total peptides) [4]: 13
- Unique (unique peptides) [4]: 13
- Total (peptides) [2]: 11
- Unique (peptides) [2]: 11

Substance: AHCTF1
- Total (total peptides) [5]: 45
- Unique (unique peptides) [5]: 42
- Total (total peptides) [4]: 4
- Unique (unique peptides) [4]: 4
- Total (peptides) [6]: 25
- Unique (peptides) [6]: 24
- Total (peptides) [3]: 2
- Unique (peptides) [3]: 2

Substance: AIFM1
- Total: 3
- Unique: 3
- Total (total peptides) [4]: 23
- Unique (unique peptides) [4]: 15
- Total (peptides) [2]: 23
- Unique (peptides) [2]: 17

Substance: AKAP8
- Total (peptides) [7]: 1
- Unique (peptides) [7]: 1

Substance: ALDH3A2
- Total (total peptides) [4]: 3
- Unique (unique peptides) [4]: 3
- Total (peptides) [3]: 2
- Unique (peptides) [3]: 2

Substance: ANXA2
- Total: 1
- Unique: 1
- Total (total peptides) [8]: 1
- Unique (unique peptides) [8]: 1

Substance: APP
- Total (peptides) [1]: 1
- Unique (peptides) [1]: 1

Substance: ARID2
- Total: 2
- Unique: 2
- Total (peptides) [1]: 2
- Unique (peptides) [1]: 2
- Total (peptides) [6]: 4
- Unique (peptides) [6]: 4
- Total (peptides) [2]: 5
- Unique (peptides) [2]: 5

Substance: ARL13B
- Total (peptides) [1]: 1
- Unique (peptides) [1]: 1

Substance: ATAD1
- Total (peptides) [7]: 1
- Unique (peptides) [7]: 1

Substance: ATP5B
- Total: 2
- Unique: 2
- Total (total peptides) [4]: 25
- Unique (unique peptides) [4]: 22
- Total (peptides) [6]: 4
- Unique (peptides) [6]: 4
- Total (peptides) [2]: 33
- Unique (peptides) [2]: 28

Substance: ATRX
- Total (total peptides) [5]: 23
- Unique (unique peptides) [5]: 20
- Total: 2
- Unique: 2
- Total (peptides) [6]: 5
- Unique (peptides) [6]: 5

Substance: AURKB
- Total (total peptides) [5]: 5
- Unique (unique peptides) [5]: 5
- Total (total peptides) [8]: 2
- Unique (unique peptides) [8]: 2

Substance: BAZ1A
- Total (total peptides) [5]: 7
- Unique (unique peptides) [5]: 7

Substance: BAZ2A
- Total (total peptides) [5]: 14
- Unique (unique peptides) [5]: 14
- Total (peptides) [6]: 5
- Unique (peptides) [6]: 5

Substance: BCL7C: BAF complex subunit quantified in the IP MS
- Total (total peptides) [5]: 29
- Unique (unique peptides) [5]: 11
- Total (total peptides) [4]: 14
- Unique (unique peptides) [4]: 7
- Total (peptides) [6]: 9
- Unique (peptides) [6]: 5
- Total (peptides) [2]: 33
- Unique (peptides) [2]: 11

Substance: BCLAF1
- Total (total peptides) [5]: 78
- Unique (unique peptides) [5]: 34
- Total (peptides) [6]: 31
- Unique (peptides) [6]: 21

Substance: BCORL1
- Total (peptides) [9]: 1
- Unique (peptides) [9]: 1
- Total (total peptides) [8]: 1
- Unique (unique peptides) [8]: 1

Substance: BICRA
- Total (total peptides) [5]: 25
- Unique (unique peptides) [5]: 23
- Total (total peptides) [4]: 89
- Unique (unique peptides) [4]: 34
- Total (peptides) [6]: 11
- Unique (peptides) [6]: 10
- Total (peptides) [2]: 158
- Unique (peptides) [2]: 45

Substance: BMS1
- Total (total peptides) [5]: 20
- Unique (unique peptides) [5]: 19
- Total (peptides) [6]: 6
- Unique (peptides) [6]: 6

Substance: BOP1
- Total (total peptides) [5]: 5
- Unique (unique peptides) [5]: 5
- Total (peptides) [6]: 5
- Unique (peptides) [6]: 5

Substance: BRD2
- Total (total peptides) [5]: 23
- Unique (unique peptides) [5]: 17
- Total (peptides) [6]: 5
- Unique (peptides) [6]: 5

Substance: BRD3
- Total: 4
- Unique: 4
- Total (total peptides) [8]: 2
- Unique (unique peptides) [8]: 2

Substance: BTAF1
- Total (peptides) [3]: 1
- Unique (peptides) [3]: 1

Substance: C11orf98
- Total (peptides) [9]: 1
- Unique (peptides) [9]: 1
- Total (total peptides) [8]: 1
- Unique (unique peptides) [8]: 1

Substance: CBX1
- Total (total peptides) [5]: 5
- Unique (unique peptides) [5]: 5
- Total (total peptides) [8]: 2
- Unique (unique peptides) [8]: 2

Substance: CBX3
- Total (total peptides) [5]: 7
- Unique (unique peptides) [5]: 6
- Total (peptides) [6]: 3
- Unique (peptides) [6]: 3

Substance: CBX5
- Total (total peptides) [5]: 29
- Unique (unique peptides) [5]: 9

Substance: CCT3
- Total (peptides) [3]: 1
- Unique (peptides) [3]: 1

Substance: CDCA8
- Total (total peptides) [5]: 5
- Unique (unique peptides) [5]: 5
- Total (peptides) [6]: 3
- Unique (peptides) [6]: 3

Substance: CDKAL1
- Total (peptides) [1]: 2
- Unique (peptides) [1]: 2

Substance: CHD1
- Total (total peptides) [5]: 19
- Unique (unique peptides) [5]: 18
- Total (peptides) [6]: 9
- Unique (peptides) [6]: 9

Substance: CHD2
- Total (total peptides) [5]: 7
- Unique (unique peptides) [5]: 7
- Total (total peptides) [8]: 1
- Unique (unique peptides) [8]: 1

Substance: CHD3
- Total (total peptides) [5]: 11
- Unique (unique peptides) [5]: 10
- Total (peptides) [6]: 7
- Unique (peptides) [6]: 7

Substance: CHD4
- Total (total peptides) [5]: 73
- Unique (unique peptides) [5]: 57
- Total (peptides) [6]: 33
- Unique (peptides) [6]: 31

Substance: CHD5
- Total (total peptides) [5]: 7
- Unique (unique peptides) [5]: 5
- Total (peptides) [6]: 3
- Unique (peptides) [6]: 3

Substance: CKAP5 [listing 1 of 2 here]
- Total (peptides) [1]: 1
- Unique (peptides) [1]: 1

Substance: CKAP5 [listing 2 of 2 here]
- Total (peptides) [3]: 1
- Unique (peptides) [3]: 1

Substance: CKB
- Total (total peptides) [8]: 1
- Unique (unique peptides) [8]: 1

Substance: CLK1
- Total: 1
- Unique: 1
- Total (total peptides) [8]: 1
- Unique (unique peptides) [8]: 1

Substance: CLPX
- Total (total peptides) [4]: 4
- Unique (unique peptides) [4]: 4
- Total (peptides) [2]: 3
- Unique (peptides) [2]: 3

Substance: COIL
- Total: 3
- Unique: 3
- Total (total peptides) [4]: 6
- Unique (unique peptides) [4]: 6
- Total (peptides) [6]: 3
- Unique (peptides) [6]: 3
- Total (peptides) [2]: 3
- Unique (peptides) [2]: 3

Substance: COPE
- Total (peptides) [3]: 1
- Unique (peptides) [3]: 1

Substance: COQ8A
- Total (total peptides) [4]: 3
- Unique (unique peptides) [4]: 3
- Total (peptides) [2]: 8
- Unique (peptides) [2]: 8

Substance: CPSF4
- Total (peptides) [1]: 2
- Unique (peptides) [1]: 2

Substance: CTPS1
- Total (peptides) [3]: 1
- Unique (peptides) [3]: 1

Substance: CUL4B
- Total (total peptides) [5]: 14
- Unique (unique peptides) [5]: 13
- Total (peptides) [6]: 5
- Unique (peptides) [6]: 5

Substance: CUL9
- Total (total peptides) [8]: 1
- Unique (unique peptides) [8]: 1

Substance: DDX10
- Total: 3
- Unique: 3
- Total (total peptides) [8]: 1
- Unique (unique peptides) [8]: 1
